# Source: PubChem BioAssay AID1259279 (Sanger Institute, 2017)
# Test: 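Kinases that colorectal cancer cells need to survive, alone or with drugs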 (primary screen)
# Cell system: LS180 human colorectal cancer cells
# Reagents: siRNA pool against human genes
# Challenge: anchor drug BYL719 at 1 µM, cetuximab at 5 µg/ml or trametinib at 10 nM, or DMSO vehicle only
# Measurement: 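Cell viability versus a non-targeting pool, as a fraction and as a robust z-score from replicate means, plus a synergy score for each of three drugs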
# Scale: viability z-score, no drug: higher = more viable cells after knock-down; viability, no drug: higher = more viable cells; synergy score with BYL719 and synergy score with cetuximab and synergy score with trametinib: higher = stronger synthetic lethal synergy with drug
# Hit rule: 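Essential (active) calls need a no-drug viability z-score lower than -3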
# Calls: active = essential (knock-down alone cuts viability); inactive = no change without drug
# This is one part, drawn at random, of 794 reagents. 11 of all reagents (1.4%) were called active. 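Calls reflect knock-down alone in the vehicle arm, not drug synergy.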 Viability is capped at 1. The record does not give: the amount of reagent, the time to read-out.
gene symbol,PubChem SID,"viability z-score, no drug","viability, no drug (fraction)",synergy score with BYL719,synergy score with cetuximab,synergy score with trametinib,outcome
TNK1,SID152152407,-1.18,0.778,-0.0617,-0.169,0.0118,inactive
STK17B,SID56478762,-0.417,0.861,-0.0712,-0.205,0.0374,inactive
RIPK3,SID152154350,0.826,0.996,-0.00335,0.0561,-0.0611,inactive
ITK,SID135620623,0.86,1,-0.0345,-0.0159,-0.0341,inactive
PHKA2,SID56479176,0.86,1,-0.035,-0.0247,-0.0483,inactive
ACVR1B,SID56478918,-0.746,0.825,-0.194,-0.0805,-0.0261,inactive
PDK4,SID152155412,0.42,0.952,0.0902,-0.00574,0.0301,inactive
CLK2,SID152151259,0.457,0.956,-0.0969,-0.15,-0.0817,inactive
PIK3C2G,SID152155956,-2.35,0.65,-0.0995,-0.103,-0.081,inactive
EEF2K,SID152154873,0.592,0.971,0.124,0.0552,-0.0409,inactive
PI4KA,SID135621251,0.86,1,-0.0305,0.00614,0.154,inactive
RPS6KA6,SID152153100,-0.5,0.852,-0.0287,-0.197,0.0293,inactive
CDK8,SID56478602,0.86,1,-0.094,-0.166,-0.0395,inactive
SRMS,SID56479047,-0.441,0.858,0.105,-0.088,-0.00934,inactive
PIP4K2B,SID152147971,-0.0392,0.902,-0.0462,-0.119,-0.0521,inactive
JAK3,SID56478525,0.86,1,-0.153,-0.166,-0.137,inactive
CSNK1E,SID56478659,-1.2,0.776,-0.0918,-0.0156,0.0518,inactive
FN3K,SID56479098,0.86,1,-0.144,-0.166,-0.0446,inactive
GNE,SID56479101,0.86,1,-0.0742,-0.0209,0.0462,inactive
CSNK1G3,SID152152817,0.86,1,-0.0555,0.0716,-0.171,inactive
CAMK1G,SID56478930,0.86,1,-0.0459,-0.0769,-0.124,inactive
MARK4,SID56479022,0.86,1,0.0752,-0.000361,-0.0156,inactive
ETNK2,SID56478982,-0.761,0.823,0.136,0.058,0.0829,inactive
PGK2,SID135621248,0.86,1,-0.0135,0.0348,0.177,inactive
AK2,SID56479162,0.15,0.923,-0.147,-0.062,0.0163,inactive
DAPK3,SID56478935,0.391,0.949,-0.075,0.0011,0.008,inactive
ADCK1,SID135620966,0.86,1,-0.0623,0.0079,-0.00609,inactive
TRIM27,SID152155375,-1.23,0.772,-0.149,-0.253,-0.163,inactive
MAST2,SID152154248,0.341,0.943,-0.0179,-0.141,0.02,inactive
DYRK3,SID152153037,-0.48,0.854,-0.0429,-0.0618,0.0891,inactive
PSKH2,SID56479040,0.86,1,0.0939,0.0301,0.0848,inactive
CKB,SID56479084,0.315,0.941,-0.233,-0.215,-0.204,inactive
OXSR1,SID152151868,0.86,1,-0.138,-0.0553,0.0569,inactive
IP6K2,SID56479106,-0.372,0.866,-0.112,-0.219,0.0213,inactive
LRRK2,SID152152689,0.86,1,-0.0961,-0.106,0.159,inactive
AKT3,SID56478465,-0.356,0.867,0.0204,-0.0582,-0.0536,inactive
SMC1A,SID134311995,-0.706,0.829,0.106,0.0204,0.138,inactive
MAP4K4,SID56478747,0.86,1,-0.149,-0.162,-0.123,inactive
ILK,SID152151227,0.253,0.934,-0.136,-0.21,-0.053,inactive
ILK,SID152153406,-0.427,0.86,-0.018,-0.103,0.128,inactive
CKM,SID56479085,0.86,1,0.0154,-0.0934,0.00601,inactive
RPS6KB1,SID152147142,-0.831,0.816,-0.148,-0.0423,0.00102,inactive
CRKL,SID152150429,-0.0146,0.905,-0.105,-0.245,-0.141,inactive
BRDT,SID152149808,0.86,1,-0.103,-0.0827,0.0178,inactive
SGK3,SID56478777,0.146,0.922,-0.128,-0.0585,-0.0541,inactive
TGFBR1,SID152153272,0.86,1,-0.056,-0.154,0.00673,inactive
EPHA1,SID152153474,0.174,0.925,-0.029,-0.109,0.0437,inactive
PRKAB2,SID134312706,-1.53,0.739,-0.0101,0.00251,-0.0585,inactive
MAP2K6,SID135620765,0.783,0.992,-0.0806,-0.0863,-0.0266,inactive
PRKCD,SID56478673,-2.85,0.595,-0.106,-0.182,-0.0629,inactive

8 neighbouring entries already listed, quoted:
gene symbol,PubChem SID,"viability z-score, no drug","viability, no drug (fraction)",synergy score with BYL719,synergy score with cetuximab,synergy score with trametinib,outcome
PSKH2,SID56479040,0.86,1,0.0939,0.0301,0.0848,inactive
CKB,SID56479084,0.315,0.941,-0.233,-0.215,-0.204,inactive
OXSR1,SID152151868,0.86,1,-0.138,-0.0553,0.0569,inactive
IP6K2,SID56479106,-0.372,0.866,-0.112,-0.219,0.0213,inactive
LRRK2,SID152152689,0.86,1,-0.0961,-0.106,0.159,inactive
AKT3,SID56478465,-0.356,0.867,0.0204,-0.0582,-0.0536,inactive
SMC1A,SID134311995,-0.706,0.829,0.106,0.0204,0.138,inactive
MAP4K4,SID56478747,0.86,1,-0.149,-0.162,-0.123,inactive
